Results reported in the supplement of paper PMC10338343.
± gives the standard deviation. The list shows a part of the results. Many of these values have a large error.

system: EfPiwi piRISC loaded with L1MC piRNA (26 nt); assay: pre-steady-state target cleavage rate (min^-1); guide: L1MC piRNA 5'p-UAACUAAAUACUAUGCAAGCUGUAGG; MIWI and MILI are mouse PIWI proteins and EfPiwi is from a freshwater sponge; tags in brackets are library labels; higher = faster piRNA-guided slicing of the target; details: auxiliary factor: 500 nM Ephydatia muelleri Gtsf1
Outline: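 In HEPES–potassium acetate buffer at 33 °C, […] transcribed, DNA-blocked target RNA library was mixed with 1 nM active affinity-purified piRISC carrying one synthetic guide, with or without 500 nM GTSF1 partner protein, for 0–8 or 0–960 min. Uncleaved targets were sequenced and normalised to depth and to weakly complementary targets; three trials were pooled and k3 was capped at 0.0001 min^-1. The pre-steady-state cleavage rate followed from a burst-and-steady-state fit.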

| Sequence | pre-steady-state target cleavage rate |
| --- | --- |
| UCCUGGAUGUCCUUGCAUAGUAUUUAGUUA [g2:g19:cont:t1A] | 0.00824 ± 0.003 |
| UCCUCCUACAGCUUGCAUAGUACUUAGUUA | 0.013 ± 0.0053 |
| UCCUGGAUCAGCUUGCUUAGUAUAUAGUUA | 0.00383 ± 0.0041 |
| UCCUGCUUCAGCUUGCAUAGUAUUUAGAUA | 0.00521 ± 0.0024 |
| UCCUGGAACUCGUUGCAUAGUAUUUAGUAA | 0.00259 ± 0.0037 |
| UCCUGGAUGUCGAAGCAUUGUAUUAAGUUA | 0.000112 ± 0.033 |
| UCCUGGAAGAGCUUGCAUAGUAUUUAGUAA | 0.00426 ± 0.0021 |
| UCCUGGAUCAGCUAGCAUAGUAUAUAGUUA | 0.0015 ± 0.0035 |
| UCCUGGAACAGCUUGAUAGUAUUUAGUUA | 0.00225 ± 0.0042 |
| UCCUGCUACAGCAUGCAUAGUUUUUAGUUA | 0.00363 ± 0.0018 |
| UCCUGGAUGUCGAACGUAAGUAUUAAGAUA | 0.000203 ± 0.024 |
| UCCUCCUAGUGCUUGCAUAGUAUUUAGUAA | 0.00468 ± 0.002 |
| UCCUGGUACACCUAGCAUAGUAUUUAGUUA | 0.00319 ± 0.0029 |
| UCCUGGAUCAGCUUGGAAAGUAUUUAGUUA | 0.00365 ± 0.0033 |
| UCCUCCUACAGGUUGCUUAGUAUUUAGUUA | 0.0231 ± 0.0065 |
| UCCUGCUACAGCUUGCAUAGUAGUUUAGUUA | 0.00695 ± 0.0028 |

| Sequence | pre-steady-state target cleavage rate |
| --- | --- |
| UCCUGGUACAGCUUGCAUAGUAUAAAGUUA | 0.00482 ± 0.0022 |
| UCCUGGAUCAGCUAGCAUAGAAUUUAGUUA | 0.00118 ± 0.0027 |
| UCCUGGAUGUCGAACGUUAGUAUUUUCAAA [g6:g13:cont:t1A] | < 0.0001 |
| UCCUGGAUGUCGAACGAUAGUAUUUAGAUUA | 0.00027 ± 0.018 |
| UCCUGGAACAGCUUGCAUAGUAUUCAGUUA | 0.00333 ± 0.0018 |
| UCCUGGAACAGCUUGCAUAGUAUUAGUUA | 0.00229 ± 0.0021 |
| UCCUGGUACAUCUUGCAUAGUAUUUAGUUA | 0.0254 ± 0.01 |
| UCCUGGAACAGCUUGCAUAGAAUUUAGUAA | 0.00292 ± 0.002 |
| UCCUGGUACAGCUAGCAUAGUUUUUAGUUA | 0.00236 ± 0.0026 |
| UCCUGGAUGUCGUUGCAUUGAAUUUAGUUA | 0.000212 ± 0.015 |
| UCCUGCUUCAGCUUGCAUAGUAUUUACUUA | 0.00411 ± 0.0037 |
| UCCUGGAUGUGCUAGCAAAGUAUUUAGUUA | 0.000472 ± 0.0085 |
| UCCUGGAUCUCCUUGCAUAGUAUUUAGUUA | 0.0227 ± 0.0066 |
| UCCUGGAUGUCGAACGUAUGUUUUAAGUUA | 0.000142 ± 0.035 |
| UCCUGGUACUGCUUGCAUAGUUUUUAGUUA | 0.00107 ± 0.0081 |

Single entries from the results shown:
pre-steady-state target cleavage rate, UCCUGGAUGUCGAACGAUAGUAUUUAGAUUA reads 0.00027 ± 0.018
pre-steady-state target cleavage rate, UCCUGGUACAUCUUGCAUAGUAUUUAGUUA reads 0.0254 ± 0.01

same assay, conditions: auxiliary factor: none (no Gtsf1)

| Sequence | pre-steady-state target cleavage rate |
| --- | --- |
| UCCUGCUACAGGUUGCAUAGUAUUUUGUUA | 0.000559 ± 0.022 |
| UCCUGCUACAGCUUGCAUAGUGAUUUAGUUA | 0.000627 ± 0.011 |
| UCCUGGAUGUCGAACGUUAGUAUUUAGUAA | 0.000297 ± 0.018 |
| UCCUGGAUGUGCUUGCAUAGUAUAUUAGUUA | 0.00389 ± 0.0046 |
| UCCUCCUACAGCUUGCAAACUAUUUAGUUA | 0.00112 ± 0.0063 |
| UCCUCCUACAGCUUGCAAUGUAUUUAGUUA | 0.000965 ± 0.0079 |
| UCCUGGAUGUCGAACGUAUCUAUCUUAGUUA | < 0.0001 |
| UCCUGCUACAGCUUGCUUUGUAUUUAGUUA | 0.000993 ± 0.0081 |
| UCCUGGUACAGGCUUGCAUAGUAUUUAGUUA | 0.00112 ± 0.014 |
